Some of the results follow.

Chains of the proteins cited; added tags and fusions are not shown.
UniProt Q0JBA9, entry or part of it: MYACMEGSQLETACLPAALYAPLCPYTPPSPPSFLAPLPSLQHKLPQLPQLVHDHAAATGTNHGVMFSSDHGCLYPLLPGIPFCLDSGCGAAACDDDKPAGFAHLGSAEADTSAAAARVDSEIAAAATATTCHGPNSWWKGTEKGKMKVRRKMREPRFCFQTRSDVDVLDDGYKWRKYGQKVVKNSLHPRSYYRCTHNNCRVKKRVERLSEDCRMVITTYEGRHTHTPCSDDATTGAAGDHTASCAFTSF

This assay concerns the target OsWRKY34 (Oryza sativa, UniProt Q0JBA9 1-250). Kind of assay: protein-binding microarray (RPBM); PBS, 2% BSA, 51.3 ng/ul salmon testes DNA, 50 uM zinc acetate, 200 nM TF, 25 C, 1 h; high values mean tight binding. To be noted: protein: recombinant; tags: N-terminal polyhistidine and DsRed monomer fusion (pET32a); label: CyDye5-dUTP incorporated in the synthesized complementary strand; 3' TTTTT single-stranded linker to array surface; dsDNA, one strand shown. The gist of the method:
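Using Ni–NTA, transcription factors fused N-terminally to polyhistidine and DsRed were purified after expression in E. coli BL21-CodonPlus. These were incubated at 200 nM with a blocked, double-stranded custom Agilent array for 1 h at 25 °C in a buffer containing 50 µM zinc acetate, and the array was washed. The binding signal is per-feature fluorescence intensity (arbitrary units) on an Axon 4000B scanner.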
For the sequence “AATATTCTTTTGCACTCACCCAACCCACCCACTGATATAACGGAGTCACCTAGTGCAG”, the binding signal was 8330 fluorescence intensity (a.u.).
As for “GCCTCCTCTGCCGTATTTGCCGCCTTCGGCCACCAACACCCGGAGTCACCTAGTGCAG”, the figure is 9080 fluorescence intensity (a.u.).
As for “ATTTACAATTCACCTTTAGTTTTTAACATTTGTTATTTCACGGAGTCACCTAGTGCAG”, the figure is 9680 fluorescence intensity (a.u.); as for “TGACTGACGTGGGATGCTTTTGACCAACCTTTGACTGAGGCGGAGTCACCTAGTGCAG”, 11200 fluorescence intensity (a.u.); as for “CATGCCCACTGTTCATCTCCAAAATCGATCCCCACACAGTCGGAGTCACCTAGTGCAG”, 12600 fluorescence intensity (a.u.).
As for “ATACTTAATTAATCATTCGCTAATGGACCACTCTGTTTTCCGGAGTCACCTAGTGCAG”, the figure is 8430 fluorescence intensity (a.u.).
Turning to “GCTCACTTTCAGTTCGTTCGATCTCGCTTCCATTTCTTCGCGGAGTCACCTAGTGCAG”, the binding signal is 10800 fluorescence intensity (a.u.).
Next, “GTTTGGGATGTCGCGGGGATTTAGGGGCGGTGGGTGGTTTCGGAGTCACCTAGTGCAG”: 39300 fluorescence intensity (a.u.).
As to “TCCCCTGTTCTCGTACACAAATTCGCAGCGATCTAATAGTCGGAGTCACCTAGTGCAG”, the binding signal was 8480 fluorescence intensity (a.u.).
Next, “CCTTCCACTACTACTGCTCGTGCTCGATCGGCCAACCATGCGGAGTCACCTAGTGCAG”: 9400 fluorescence intensity (a.u.); “TGGCGGCGGTGGGAGTCAGTTGCGGCTGCTTCGCGGGGTACGGAGTCACCTAGTGCAG”: 11300 fluorescence intensity (a.u.); “AACTAAATCCCTCGGCAATTTTGACTCCGGTTTTATCCTTCGGAGTCACCTAGTGCAG”: 9620 fluorescence intensity (a.u.).
Next, “ACAACTATGAAATTCATGCCTATCTCGATATCTCCAAGATCGGAGTCACCTAGTGCAG”: 8330 fluorescence intensity (a.u.).
Next, “ACTGACCTTAGCTTAGCTTACCTTAGCTCAACCCCAAGCTCGGAGTCACCTAGTGCAG”: 8360 fluorescence intensity (a.u.).
For “CGATGATCAGTGTGATTCAGTGTTTGCTGCTTTTCTTTAACGGAGTCACCTAGTGCAG”, the binding signal is 8180 fluorescence intensity (a.u.).
Next, “AAGTACATCCCTTCGTCTCTTTGCTCCGTGCTGTCCGCCCCGGAGTCACCTAGTGCAG”: 10900 fluorescence intensity (a.u.); “TCGCCGAGGACACCCATCCCGTCGCTAGCTCGTCGCATCGCGGAGTCACCTAGTGCAG”: 8410 fluorescence intensity (a.u.); “TCATGTGTTGGTTCTTCGGTTAATCTCCTAGTGGCTCTATCGGAGTCACCTAGTGCAG”: 8440 fluorescence intensity (a.u.).
Next, “TCGAAATTTCAGACATCTACTACTTCTGTGCCATGTCGAACGGAGTCACCTAGTGCAG”: 8840 fluorescence intensity (a.u.).
As for “CTCCTCTGCGCTGCCGTTCCCCGTTATTCGCCAACGCTTCCGGAGTCACCTAGTGCAG”, the figure is 10200 fluorescence intensity (a.u.).
Turning to “GCCTCGCGTACGCTCTCCGCTACTACTTCAGTTCTCGCTCCGGAGTCACCTAGTGCAG”, the binding signal was 9000 fluorescence intensity (a.u.).
As for “ATACTTCAATTGTTGTACTAGTTTTTAGCTTCCTGTTCCACGGAGTCACCTAGTGCAG”, the figure is 10900 fluorescence intensity (a.u.).
As for “AAATTTACTTTAATATGATTATAATTTTATTGCAATAAACCGGAGTCACCTAGTGCAG”, the figure is 8060 fluorescence intensity (a.u.).

Source of the values: paper PMC7819943, “Rice protein-binding microarrays: a tool to detect cis-acting elements near promoter regions in rice”.
